{"source": "PubChem BioAssay AID1259254 | NCATS, 2017", "assay": "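Finding genes that stop cells copying their DNA twice in one cycle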 (primary screen)", "cell system": "human HCT116 colorectal cancer cells", "reagent": "single siRNA against human genes", "duration": "3 days", "measured": "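Imaged Hoechst DNA stain sorts each cell into a cycle phase by DNA amount; per plate, G2 fraction set to 0% for non-targeting and 100% for GMNN siRNA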", "scale": "G2 robust z-score: higher = more G2 cells, more excess DNA replication", "active means": "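An siRNA counts as active if its G2 robust z-score lies at least 5 MADs above the screen median; here such calls match roughly 38% of GMNN control or more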", "note": "The whole screen tested about 59,000 reagents; below is a random part of them. Over the whole deposit, about 1,550 (2.6%) were called active. 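G2 share is only a proxy for re-replication; each gene was hit by three separate siRNAs, and active genes were retested.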 Unmarked entries are inactive. Reagents against one gene are numbered here. Not all columns of the deposit are shown. No sequences are given here. Not stated in the record: the amount of reagent."}
{"target":"BAG4","siRNA no.":1,"G2 robust z-score":0.173}
{"target":"BAG4","siRNA no.":2,"G2 robust z-score":3.66}
{"target":"BAG4","siRNA no.":3,"G2 robust z-score":0.245}
{"target":"FCGRT","siRNA no.":1,"G2 robust z-score":0.944}
{"target":"FCGRT","siRNA no.":2,"G2 robust z-score":-0.917}
{"target":"FCGRT","siRNA no.":3,"G2 robust z-score":0.0214}
{"target":"DACH1","siRNA no.":1,"G2 robust z-score":-0.812}
{"target":"DACH1","siRNA no.":2,"G2 robust z-score":0.153}
{"target":"DACH1","siRNA no.":3,"G2 robust z-score":0.229}
{"target":"TNP2","siRNA no.":1,"G2 robust z-score":-0.765}
{"target":"TNP2","siRNA no.":2,"G2 robust z-score":3.66}
{"target":"TNP2","siRNA no.":3,"G2 robust z-score":2.09}

Already shown: 2 of the entries above.
{"target":"FCGRT","siRNA no.":1,"G2 robust z-score":0.944}
{"target":"FCGRT","siRNA no.":2,"G2 robust z-score":-0.917}
